Data taken from PubChem BioAssay AID504749, deposited by NCATS (2011).

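Malaria parasite (P. falciparum) lines kept in red blood cells; parasite DNA is measured by SYBR Green fluorescence after lysis, 72 h after compound addition. Each compound was titrated across a series from about 0.000037 to 29 µM. The number is the fitted AC50, the concentration giving a half-maximal change in signal; a lower value means higher potency, whether the curve shows a decrease or an increase. Calls follow the curve class and fit quality: every row here is inconclusive, covering signal-raising curves and weak, poorly fitted, partial or highest-dose-only inhibition curves.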

Values are in µM. Every entry below has the call inconclusive. Only part of the assay is shown, chiefly results filed as inconclusive. Potencies fitted to partial, single-point or poorly fitting curves are rough.

| Compound | tested on / at | potency (µM) | curve as filed |
|---|---|---|---|
| `COCCOC(=O)C1=C(C)NC(C)=C(C(=O)OC/C=C/c2ccccc2)C1c1cccc([N+](=O)[O-])c1` (configuration not stated) | CP256 | 10 | inhibitor, single point |
| `COCCOC(=O)C1=C(C)NC(C)=C(C(=O)OC/C=C/c2ccccc2)C1c1cccc([N+](=O)[O-])c1` (configuration not stated) | DFO2036 | 11.22 | inhibitor, single point |
| `CN1CCCC(CN2c3ccccc3Sc3ccccc32)C1` (configuration not stated) | CP335 | 6.746 | inhibitor, partial curve |
| `CN1CCCC(CN2c3ccccc3Sc3ccccc32)C1` (configuration not stated) | ATS189 | 7.08 | inhibitor, partial curve |
| `CN1CCCC(CN2c3ccccc3Sc3ccccc32)C1` (configuration not stated) | PC26 | 13.46 | inhibitor, single point |
| `CN1CCCC(CN2c3ccccc3Sc3ccccc32)C1` (configuration not stated) | PC15 | 8.912 | inhibitor, partial curve |
| `CN1CCCC(CN2c3ccccc3Sc3ccccc32)C1` (configuration not stated) | CP238 | 11.22 | inhibitor, partial curve |
| `CN1CCCC(CN2c3ccccc3Sc3ccccc32)C1` (configuration not stated) | SC27B | 14.13 | inhibitor, partial curve |
| `CN1CCCC(CN2c3ccccc3Sc3ccccc32)C1` (configuration not stated) | CP268 | 4.256 | inhibitor, partial curve |
| `CN1CCCC(CN2c3ccccc3Sc3ccccc32)C1` (configuration not stated) | TAB113 | 10 | inhibitor, single point |
| `CN1CCCC(CN2c3ccccc3Sc3ccccc32)C1` (configuration not stated) | P94_40 | 7.943 | inhibitor, partial curve |
| `CN1CCCC(CN2c3ccccc3Sc3ccccc32)C1` (configuration not stated) | GB4 | 8.492 | inhibitor, partial curve |
| `CN1CCCC(CN2c3ccccc3Sc3ccccc32)C1` (configuration not stated) | CP215 | 13.46 | inhibitor, partial curve, poor fit |
| `CN1CCCC(CN2c3ccccc3Sc3ccccc32)C1` (configuration not stated) | P93_24 | 11.22 | inhibitor, partial curve |
| `CN1CCCC(CN2c3ccccc3Sc3ccccc32)C1` (configuration not stated) | CP291 | 7.569 | inhibitor, partial curve |
| `CN1CCCC(CN2c3ccccc3Sc3ccccc32)C1` (configuration not stated) | ECU | 10 | inhibitor, single point |
| `CN1CCCC(CN2c3ccccc3Sc3ccccc32)C1` (configuration not stated) | CP185 | 10 | inhibitor, single point |
| `CN1CCCC(CN2c3ccccc3Sc3ccccc32)C1` (configuration not stated) | CP237 | 11.22 | inhibitor, partial curve |
| `CN1CCCC(CN2c3ccccc3Sc3ccccc32)C1` (configuration not stated) | ATS95 | 11.22 | inhibitor, partial curve |
| `CN1CCCC(CN2c3ccccc3Sc3ccccc32)C1` (configuration not stated) | CP247 | 11.22 | inhibitor, partial curve |
| `CN1CCCC(CN2c3ccccc3Sc3ccccc32)C1` (configuration not stated) | PAD | 8.912 | inhibitor, single point |
| `CN1CCCC(CN2c3ccccc3Sc3ccccc32)C1` (configuration not stated) | C2A | 11.22 | inhibitor, single point |
| `CN1CCCC(CN2c3ccccc3Sc3ccccc32)C1` (configuration not stated) | CP286 | 11.22 | inhibitor, partial curve |
| `CN1CCCC(CN2c3ccccc3Sc3ccccc32)C1` (configuration not stated) | CP256 | 4.467 | inhibitor, partial curve |
| `CN1CCCC(CN2c3ccccc3Sc3ccccc32)C1` (configuration not stated) | CP191 | 10 | inhibitor, single point |
| `CN1CCCC(CN2c3ccccc3Sc3ccccc32)C1` (configuration not stated) | CP194 | 10.69 | inhibitor, partial curve |
| `CN1CCCC(CN2c3ccccc3Sc3ccccc32)C1` (configuration not stated) | DFO2036 | 12.59 | inhibitor, partial curve |
| `CN1CCCC(CN2c3ccccc3Sc3ccccc32)C1` (configuration not stated) | CP252 | 10 | inhibitor, partial curve |
| `CN1CCCC(CN2c3ccccc3Sc3ccccc32)C1` (configuration not stated) | CP203 | 7.569 | inhibitor, partial curve, poor fit |
| `CN1CCCC(CN2c3ccccc3Sc3ccccc32)C1` (configuration not stated) | CP250 | 17.78 | inhibitor, single point |
| `CN1CCCC(CN2c3ccccc3Sc3ccccc32)C1` (configuration not stated) | CP260 | 12.59 | inhibitor, single point |
| `CN1CCCC(CN2c3ccccc3Sc3ccccc32)C1` (configuration not stated) | DIV30 | 16.94 | inhibitor, single point |
| `CN1CCCC(CN2c3ccccc3Sc3ccccc32)C1` (configuration not stated) | CP269 | 8.492 | inhibitor, partial curve, poor fit |
| `CN1CCCC(CN2c3ccccc3Sc3ccccc32)C1` (configuration not stated) | CP211 | 5.358 | inhibitor, partial curve |
| `CC(C)[N+](C)(CCOC(=O)C1c2ccccc2Oc2ccccc21)C(C)C` | CP329 | 19.01 | inhibitor, single point |
| `CC(C)[N+](C)(CCOC(=O)C1c2ccccc2Oc2ccccc21)C(C)C` | 3D7 | 17.78 | inhibitor, single point |
| `CC(C)[N+](C)(CCOC(=O)C1c2ccccc2Oc2ccccc21)C(C)C` | CP286 | 17.78 | inhibitor, single point |
| `CC(C)[N+](C)(CCOC(=O)C1c2ccccc2Oc2ccccc21)C(C)C` | AS120 | 17.78 | inhibitor, single point |
| `CC(C)[N+](C)(CCOC(=O)C1c2ccccc2Oc2ccccc21)C(C)C` | CP265 | 17.78 | inhibitor, single point |
| `CC(C)[N+](C)(CCOC(=O)C1c2ccccc2Oc2ccccc21)C(C)C` | ICS | 8.912 | inhibitor, partial curve |
| `CC(C)[N+](C)(CCOC(=O)C1c2ccccc2Oc2ccccc21)C(C)C` | HB3 | 12.59 | inhibitor, single point |
| `CC(C)[N+](C)(CCOC(=O)C1c2ccccc2Oc2ccccc21)C(C)C` | PAD | 11.22 | inhibitor, single point |
| `CC(C)[N+](C)(CCOC(=O)C1c2ccccc2Oc2ccccc21)C(C)C` | TAB113 | 17.78 | inhibitor, single point |
| `CC(C)[N+](C)(CCOC(=O)C1c2ccccc2Oc2ccccc21)C(C)C` | CP217 | 11.22 | inhibitor, single point |
| `CC(C)[N+](C)(CCOC(=O)C1c2ccccc2Oc2ccccc21)C(C)C` | 7G8 | 11.22 | inhibitor, single point |
| `CC(C)[N+](C)(CCOC(=O)C1c2ccccc2Oc2ccccc21)C(C)C` | DIV17 | 7.569 | inhibitor, partial curve, poor fit |
| `CC(C)[N+](C)(CCOC(=O)C1c2ccccc2Oc2ccccc21)C(C)C` | CP297 | 21.33 | inhibitor, partial curve, poor fit |
| `CC(C)[N+](C)(CCOC(=O)C1c2ccccc2Oc2ccccc21)C(C)C` | P93_24 | 17.78 | inhibitor, single point |
| `O=C(N/N=C\c1ccc([N+](=O)[O-])o1)c1ccc(O)cc1` | CP262 | 8.087 | inhibitor, single point |
| `O=C(N/N=C\c1ccc([N+](=O)[O-])o1)c1ccc(O)cc1` | CP192 | 7.208 | inhibitor, single point |
| `O=C(N/N=C\c1ccc([N+](=O)[O-])o1)c1ccc(O)cc1` | CP325 | 7.208 | inhibitor, single point |

For reference, 4 entries once more:

Compound,tested on / at,potency (µM),curve as filed
CN1CCCC(CN2c3ccccc3Sc3ccccc32)C1 (configuration not stated),SC27B,14.13,"inhibitor, partial curve"
CN1CCCC(CN2c3ccccc3Sc3ccccc32)C1 (configuration not stated),CP260,12.59,"inhibitor, single point"
O=C(N/N=C\c1ccc([N+](=O)[O-])o1)c1ccc(O)cc1,CP262,8.087,"inhibitor, single point"
CN1CCCC(CN2c3ccccc3Sc3ccccc32)C1 (configuration not stated),PC15,8.912,"inhibitor, partial curve"